Among the data in PubChem BioAssay AID2685 (National Center for Advancing Translational Sciences (NCATS), 2010) are cell number change and AC50 values, retold here.

Each structure is given as a SMILES string. The list shows a part of the results. The main result of the screen is listed elsewhere. These columns were measured beside it and carry no call. The list favours compounds with an active or inconclusive main result. Words in brackets tell the shape of the fitted curve; partial curves, single points and poor fits give uncertain potencies.

This assay in a line: qHTS Assay for Lipid Storage Modulators in Drosophila S3 Cells.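 For cell number change: cells counted by Cell Tracker Red CMTPX staining in the red channel.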 Particulars: BODIPY lipid droplet fluorescence, 18-24 h; for cell number change: measured here: cell count max response, cells fed with added oleic acid. In short, it runs like this:
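Drosophila S3 cells loaded with oleic acid (400 uM, as added) and compounds at several concentrations; lipid droplets imaged by 488-nm laser-scanning cytometry, 500–530 nm intensity and object ratio to cell channel. Percent activity normalized to 20 uM Triacsin C.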

The mark [1] stands for this setting: measured here: cell number channel AC50, cells fed with added oleic acid.
The mark [2] stands for this setting: measured here: lipid fluorescence (Fed channel) AC50, cells fed with added oleic acid.

As for `Cn1c(C2CCCCC2)nc2c1c(=O)[nH]c(=O)n2Cc1ccccc1`, the cell number change was -32.5%. Further, the half-maximal activity concentration (AC50) under setting [1] was 0.184 µM [falling, full curve].

`CSc1ccc(CN2CCSCC2)cc1`: the cell number change was -17.9%. For the same compound, the AC50 under setting [2] was 0.58 µM [rising, single point].

As for `O=C1c2ccccc2C(Nc2ccc(-c3nc4ccccc4[nH]3)cc2)N1Cc1ccco1` (centres undefined), the cell number change is -15.5%.

As to `CC1CCC(NC(=O)CN(C)S(=O)(=O)c2cnc[nH]2)CC1` (centres undefined), the cell number change is 1.68%. For the same compound, the AC50 under setting [1] was 2.59 µM [falling, single point]. Besides, the AC50 under setting [2] is 2.59 µM [falling, single point].

As for `Cc1c(N/N=C(\C#N)C(=O)c2ccc(Cl)cc2)c(=O)n(-c2ccccc2)n1C`, the cell number change amounted to 102%. For the same compound, the AC50 under setting [1] was 16.4 µM [rising, single point]. Also, the AC50 under setting [2] was 29.1 µM [falling, single point].

As to `Cc1nc(C2CC(=O)OC23CCCCC3)cs1` (centres undefined), the cell number change was -0.414%. Moreover, the concentration at half-maximal activity (AC50) under setting [1] is 0.103 µM [falling, full curve, poor fit]. Moreover, the concentration at half-maximal activity (AC50) under setting [2] was 0.082 µM [falling, full curve, poor fit].

With `CCc1nnc(NC(=O)CSc2ncc(-c3ccccc3)n2CC)s1`, the cell number change was -17.7%. Further, the AC50 under setting [2] is 2.31 µM [falling, single point].

For `O=C(c1ccc(S(=O)(=O)Nc2ccc(F)cc2)cc1)N1CCN(C(=O)c2ccco2)CC1`, the cell number change was -7.22%.

`CN1CCN(C(=O)/C(=C/c2cn(S(=O)(=O)N(C)C)c3ccccc23)NC(=O)c2ccccc2)CC1`: the cell number change came to 33.6%. In addition, the AC50 under setting [1] is 0.731 µM [rising, full curve, poor fit]. The AC50 under setting [2] is 6.51 µM [rising, partial curve].

With `Cc1nc(C)c(-c2csc(Nc3ccc(N)cc3)n2)s1`, the cell number change is -42.9%. The AC50 under setting [1] was 29.1 µM [falling, partial curve, poor fit]. Moreover, under setting [2], the AC50 was 25.9 µM [falling, partial curve, poor fit].

Take `CC1=Nc2ccccc2/C1=C\c1nc(-c2ccc(C(F)(F)F)cc2)oc1O`: the cell number change came out at 41.1%. Further, the AC50 under setting [1] was 16.4 µM [rising, partial curve, poor fit]. Also, under setting [2], the AC50 was 18.4 µM [falling, single point].

Regarding `COc1ccc(S(=O)(=O)Nc2cccc(N(C)S(C)(=O)=O)c2)cc1C`, the cell number change was -19.4%. For the same compound, under setting [2], the AC50 is 18.4 µM [falling, single point].

As to `O=C(Cc1ccccc1)c1nnc(-c2ccccc2)o1`, the cell number change was 41%.

Consider `CCC(C(=O)O)N1C(=O)c2ccccc2C1=O` (centres undefined), for which the cell number change was -35.3%. The AC50 under setting [1] was 1.46 µM [falling, full curve, poor fit]. The half-maximal activity concentration (AC50) under setting [2] was 0.731 µM [falling, full curve, poor fit].

Turning to `CCN1CCN(S(=O)(=O)c2ccc(S(=O)(=O)NCC3CCCO3)cc2)CC1` (centres undefined), the cell number change was found to be 0.811%. For the same compound, the AC50 under setting [2] is 9.2 µM [rising, partial curve].
